Reference: publication PMC12763885
These are yes or no findings as the source states them, for the method shown. Binding seen in cells or lysates may run through a third protein. Some binding calls cover weakened binding; strength is not graded here. For some assays here: Tags and fused reporters may be left off the sequences shown. Each block holds one molecule with its values, some of them ahead of it.

Protein sequences, listed by entry. Tags and fused reporters are not part of them.
UniProt O00429: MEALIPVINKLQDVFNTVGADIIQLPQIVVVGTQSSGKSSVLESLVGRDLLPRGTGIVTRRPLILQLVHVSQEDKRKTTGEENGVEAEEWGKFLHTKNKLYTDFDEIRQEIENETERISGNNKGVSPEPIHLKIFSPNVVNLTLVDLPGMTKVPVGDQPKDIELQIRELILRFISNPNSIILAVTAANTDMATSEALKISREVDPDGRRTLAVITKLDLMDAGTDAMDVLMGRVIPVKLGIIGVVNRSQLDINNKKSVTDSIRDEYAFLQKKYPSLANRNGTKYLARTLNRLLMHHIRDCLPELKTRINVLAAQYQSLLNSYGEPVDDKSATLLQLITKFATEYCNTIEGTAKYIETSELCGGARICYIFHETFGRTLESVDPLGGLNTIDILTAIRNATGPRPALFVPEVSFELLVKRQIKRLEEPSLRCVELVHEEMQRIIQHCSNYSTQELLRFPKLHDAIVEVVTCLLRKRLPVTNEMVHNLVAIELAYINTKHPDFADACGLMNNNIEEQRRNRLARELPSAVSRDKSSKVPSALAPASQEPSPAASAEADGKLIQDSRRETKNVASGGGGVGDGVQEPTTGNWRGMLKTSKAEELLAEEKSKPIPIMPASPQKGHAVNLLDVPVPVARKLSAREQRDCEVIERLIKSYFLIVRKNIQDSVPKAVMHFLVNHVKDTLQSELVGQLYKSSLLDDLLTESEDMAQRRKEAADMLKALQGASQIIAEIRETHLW

How the values were obtained:
[1] = molecular target: T1, Phosphoglycerate mutase 5 (PGAM5), endogenous (human (endogenous in HepG2)) (UniProt Q96HS1); assay: co-IP; HepG2 cells lysed in Western and IP lysis buffer; lysate with the corresponding antibody and Protein A + G beads overnight at 4 C; immunoblotting; cells overexpressing GSTK1, with GSTK1 knockdown, with stable Flag-PGAM5 or with transiently transfected point mutation plasmids
T1 sequence: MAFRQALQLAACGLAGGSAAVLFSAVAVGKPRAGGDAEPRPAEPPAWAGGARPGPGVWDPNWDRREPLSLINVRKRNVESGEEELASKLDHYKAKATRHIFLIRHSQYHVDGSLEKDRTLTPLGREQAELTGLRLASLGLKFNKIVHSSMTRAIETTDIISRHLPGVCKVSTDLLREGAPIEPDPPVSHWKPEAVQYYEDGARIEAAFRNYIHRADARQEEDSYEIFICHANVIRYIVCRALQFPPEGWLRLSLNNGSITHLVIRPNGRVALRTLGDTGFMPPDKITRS

Flag-PGAM5 = molecular target: T2, Flag-PGAM5 (UniProt Q96HS1); assay: as above
T2 sequence: T1 sequence

- binding [1]: binds
Molecule: Dynamin related protein 1 (DRP1), endogenous (from UniProt O00429 1-736)

- binding (Flag-PGAM5): binds
B1: Glutathione S-transferase kappa 1 (GSTK1), endogenous (protein, UniProt Q9Y2Q3 1-226)
chain: MGPLPRTVELFYDVLSPYSWLGFEILCRYQNIWNINLQLRPSLITGIMKDSGNKPPGLLPRKGLYMANDLKLLRHHLQIPIHFPKDFLSVMLEKGSLSAMRFLTAVNLEHPEMLEKASRELWMRVWSRNEDITEPQSILAAAEKAGMSAEQAQGLLEKIATPKVKNQLKETTEAACRYGAFGLPITVAHVDGQTHMLFGSDRMELLAHLLGEKWMGPIPPAVNARL
